Out of some 400,000 compounds screened, about 13,000 (3.2%) were called active. The shares of active, inactive and inconclusive entries below differ from those in the screen. Calls follow the shape of the dose curve; as a rule, active = well fitted cell-killing curve with a large enough effect; inconclusive = small, poorly fitted or top-dose-only effect, or effect the other way; inactive = flat fitted curve, though single readings scatter. A potency beside an inconclusive call is a rough fit, not a confirmed value.
assay: qHTS assay for MDR1-selective chemotherapeutics: Primary screen using the drug-selected MDR subline cells KB-V1; details: KB-V1 MDR cells viability, CellTiter-Glo, 72 h; activity change, negative = cytotoxicity: at 46.1 µM (top of the series); also: nearly all actives have a fitted effect of over 60% in size
Method in brief: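 In this primary screen, KB-V1 cells overexpressing P-gp are incubated with library compounds (lowest to highest concentration) for 72 h at 37 degrees C before a luminescent ATP viability read.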
% is scaled to controls: 0 for no effect and ±100 for the full control effect; potency is read from the fitted curve at half-maximal effect.

Structure (SMILES)	Potency	activity change, negative = cytotoxicity
Cc1ccc(C(=O)N/C(=C/c2ccccc2)C(=O)NC(Cc2ccccc2)C(=O)O)cc1 (stereo unspecified)	inconclusive: 20.6 µM [rising, partial curve]	
COc1ccc(N(CC(=O)N/N=C/c2ccccc2OC)S(=O)(=O)c2ccccc2)cc1	inactive	
CCc1cc(C(=O)N2CCN(C(=O)c3ccco3)CC2)sc1C	inactive	
O=C(COc1ccc([N+](=O)[O-])cc1)N(Cc1ccccc1)Cc1ccccc1	active: 18.4 µM	
COc1cc(NC(=S)NC(=O)c2c(OC)cccc2OC)ccc1NC(=O)c1cccs1	inconclusive: 5.8 µM [cytotoxic, full curve, poor fit]	
Fc1ccc(CNc2nc3c(-c4ccc(F)cc4)nnn3c3ccccc23)cc1	inactive	
CC(C)CN1C(=O)c2ccccc2C1c1nnnn1-c1ccc2c(c1)OCCO2 (stereo unspecified)	inconclusive: 9.2 µM [cytotoxic, partial curve]	
COc1cc(OC)cc(C(=O)N[C@H](C(=O)N2CCc3ccccc32)C(C)C)c1	inconclusive: 8.2 µM [cytotoxic, partial curve]	
CN(c1ccccc1)S(=O)(=O)c1cccc(NC(=O)CSc2nncs2)c1	active: 4.11 µM	
O=C(CCCn1c(=O)[nH]c2cc(Cl)ccc2c1=O)NC1CCCCCC1	active: 20.6 µM	
CCCCCN(C(=O)CCC(=O)OCc1cc(C(C)=O)ccc1OC)c1c(N)n(CCCC)c(=O)[nH]c1=O	inconclusive: 9.2 µM [rising, partial curve]	
O=C(COC(=O)c1ccc(O)cc1)NCCC1=CCCCC1	inconclusive: 0.013 µM [rising, full curve]	
Cn1c(=O)cc(OCCCC(=O)Nc2ccccn2)c2ccccc21	inconclusive: 23.1 µM [cytotoxic, single point]	
CC1=C(C)/C(=N\OS(=O)(=O)c2ccccc2)C=CC1=O	active: 15.8 µM	
Cc1ccc(S(=O)(=O)Nc2ccc3c4c(cccc24)CC3)c(C)c1	active: 20.6 µM	
CCCCSc1ncnc2c1sc1nc(N3CCOCC3)c3c(c12)CCCC3	inconclusive: 18.4 µM [cytotoxic, partial curve]	
O=C(O)CNS(=O)(=O)c1cccc(Cl)c1	inactive	
COc1cc(NC(=O)C2(C)CCCN2C)cc(OC)c1OC (stereo unspecified)	inconclusive: 11.6 µM [rising, partial curve, poor fit]	
Cc1ccc(NC(=O)NCCc2c(C)nn(C)c2C)c(Cl)c1	inactive	
NC(=O)C1CCN(C(=O)C2CC(=O)N(Cc3ccccc3)C2)CC1 (stereo unspecified)	inconclusive: 29.1 µM [rising, single point]	
O=C(CCl)Nc1ccccc1C(=O)Nc1ccc2c(c1)OCO2	inconclusive: 29.1 µM [cytotoxic, single point]	
COc1ccc(NC(=O)CCCNC(=O)c2ccc(Cl)cc2)cc1S(=O)(=O)N1CCOCC1	inconclusive: 29.1 µM [rising, single point]	
O=S(=O)(c1c(F)cccc1F)N1CCN(Cc2c(O)ccc3ccccc23)CC1	inconclusive: 29.1 µM [rising, single point]	
COc1ccc(C(=O)/C=C/c2ccc(O)cc2)c(O)c1CC=C(C)C	inactive	

By substructure, the compounds so far with an NH in an aromatic ring.
Structure (SMILES)	Potency	activity change, negative = cytotoxicity
O=C(CCCn1c(=O)[nH]c2cc(Cl)ccc2c1=O)NC1CCCCCC1	active: 20.6 µM	
CCCCCN(C(=O)CCC(=O)OCc1cc(C(C)=O)ccc1OC)c1c(N)n(CCCC)c(=O)[nH]c1=O	inconclusive: 9.2 µM [rising, partial curve]	

Carrying on.

Structure (SMILES)	Potency	activity change, negative = cytotoxicity
COc1ccc(NC(=O)C(c2ccccn2)N(C(C)=O)c2ccc(C)cc2)cc1 (stereo unspecified)	active: 18.4 µM	
O=C(NCc1ccc2c(c1)OCO2)C1CC(=O)N(c2ccc(O)cc2)C1 (stereo unspecified)		inconclusive: 45.4%
COc1ccccc1NC(=O)C(C)OC(=O)CSCC(=O)Nc1cc(C)on1 (stereo unspecified)	inactive	
O=C(CCl)N1CCN(C(=O)C2COc3ccccc3O2)CC1 (stereo unspecified)	inconclusive: 18.4 µM [cytotoxic, single point]	
CC1=C(C(=O)Nc2ccc(C)cc2)C(c2ccccc2Cl)n2nnnc2N1 (stereo unspecified)	inactive	
CCOc1ccc(CNC(=O)COc2cc(=O)n(C)c3ccccc23)cc1	inactive	
Cc1cccc(C)c1-n1c(C)cc(/C=N/NC(N)=S)c1C	inconclusive: 29.1 µM [cytotoxic, single point]	
CCOC(=O)c1c(C)c(C(=O)N2CCc3ccccc3C2)c(C)n1CC	inconclusive: 18.4 µM [cytotoxic, partial curve]	
O=C(NCC(c1cccs1)N1CCOCC1)c1cn(-c2ccccc2)nc1-c1ccc(Cl)cc1 (stereo unspecified)	active: 7.31 µM	
O=C1CCN(Cc2ccccc2)CCN1[C@H](COc1ccccc1)c1ccccc1	inconclusive: 9.2 µM [cytotoxic, partial curve]	
Cn1c(SCC(=O)N2CCN(S(=O)(=O)c3ccccc3)CC2)nc2ccccc21	inconclusive: 16.4 µM [cytotoxic, partial curve]	
C=CCn1c(=NC(=O)c2cc(-c3cccs3)nc3ccccc23)sc2cc(S(N)(=O)=O)ccc21	inactive	
CCOCCCNC(=O)CN1CCN(Cc2ccc(Cl)cc2)C1=O	inactive	
Cc1onc(-c2ccccc2)c1C(=O)Nc1sc2c(c1C#N)CCC2	active: 4.61 µM	
Cc1cn([C@H]2C[C@H](O)[C@@H](CNC(=O)[C@@H]3CCCN3Cc3ccccc3)O2)c(=O)[nH]c1=O	inactive	
CCCC(=O)n1nc(-c2ccco2)nc1SCc1ccccc1	inactive	
CCCCCCN1CCN(C2CN(Cc3ccc([N+](=O)[O-])cc3)S(=O)(=O)C2)CC1 (stereo unspecified)	inconclusive: 18.4 µM [cytotoxic, partial curve, poor fit]	
COc1ccc(-n2nc(C(=O)NCC(=O)N3CCN(c4ccccc4OC)CC3)c3ccccc3c2=O)cc1OC	inconclusive: 29.1 µM [cytotoxic, partial curve, poor fit]	
COc1ccccc1-c1nnc(SCC(=O)c2ccc(C3CCCCC3)cc2)n1Cc1ccco1	inconclusive: 14.6 µM [cytotoxic, partial curve, poor fit]	
CC(=O)c1ccc(NC(=O)C(C)OC(=O)C2CCN(c3ccc(C(F)(F)F)cn3)CC2)cc1 (stereo unspecified)	inconclusive: 9.2 µM [cytotoxic, partial curve, poor fit]	
O=C(Cn1cc2c(n1)CCCC2)NC1CCN(Cc2ccccc2)CC1	inconclusive: 0.164 µM [rising, full curve]	
S=c1[nH]nc(COc2ccccc2)n1-c1ccc(Cl)cc1	inactive	
Cc1ccc(S(=O)(=O)NNC(=O)NC23CC4CC(CC(C4)C2)C3)cc1	active: 20.6 µM	
COCn1cnc(-c2ccccc2)c1-c1ccccc1	inactive	

Structure (SMILES)	Potency	activity change, negative = cytotoxicity
CCCCCCCCN1C(=O)[C@H](CC(=O)NCC23CC4CC(CC(C4)C2)C3)C[C@@]2(C(=O)OC)CC(C)(C)CC=C12	inconclusive: 23.1 µM [cytotoxic, partial curve]	
CCN(CC)S(=O)(=O)c1cc(NC(=O)C(C)N(C)CC(=O)Nc2c(C)cccc2C)ccc1C (stereo unspecified)	active: 5.17 µM	
Cc1nnc(SCC(=O)Nc2ccccc2F)n(N)c1=O	inconclusive: 11.6 µM [rising, partial curve, poor fit]	
CC(C)CCNc1nc(N2CCCC2)c2c(c1C#N)CCN(C)C2	inconclusive: 29.1 µM [cytotoxic, single point]	
Cc1cc(-c2nn(-c3ccccc3F)cc2CN2CCC(O)CC2)c(C)s1	inactive	
Nc1ccc2c(c1)C(=O)C(=O)c1ccccc1-2	active: 4.61 µM	
COc1ccc(OC)c(S(=O)(=O)Nc2cc(OC)c(Cl)cc2OC)c1	inactive	
N/C(=N\OC(=O)c1ccccc1)c1ccccn1	inactive	
CN(CC(=O)Nc1ccc(F)cc1)C(=O)CNC(=O)C1CCCCC1	inactive	
Cc1cc(C)nc(SCc2nnc(SCC(=O)Nc3nccs3)n2C)n1	inconclusive: 29.1 µM [rising, single point]	
CCc1ccccc1Nc1nc(-c2cccnc2)cs1	inconclusive: 18.4 µM [cytotoxic, single point]	
O=C(CN1C(=O)C2(SCC(=O)N2c2ccc(F)c(F)c2)c2ccccc21)Nc1cccc(Cl)c1 (stereo unspecified)	inconclusive: 16.4 µM [cytotoxic, single point]	
COc1cccc(OC)c1C(=O)NC(=S)NNC(=O)[C@H]1C[C@@H]1c1ccccc1	inconclusive: 0.92 µM [rising, full curve, poor fit]	
Cc1ccc(S(=O)(=O)N2CCCC2CNC(=O)C(=O)NCc2ccc3c(c2)OCO3)cc1 (stereo unspecified)	inconclusive: 10.3 µM [cytotoxic, single point]	
O=C(Cc1ccccc1)c1ccc2c(c1)OCCO2	inconclusive: 10.3 µM [rising, partial curve, poor fit]	
CCOC(=O)c1cnn(CCOC(=O)C(C)(C)C)c1NC(=O)C(C)(C)C	inconclusive: 8.2 µM [cytotoxic, partial curve]	
CCN(CC)C(=O)CCCSc1nnc(Nc2ccccc2F)s1	inconclusive: 23.1 µM [cytotoxic, single point]	
COc1ccc(N(C(=O)c2snc(C(N)=O)c2N)C(C(=O)NCC2CCCO2)c2ccc3ncccc3c2)cc1OC (stereo unspecified)	inconclusive: 23.1 µM [rising, single point]	
Cc1ccc2[nH]c(=O)c(CN(CCc3ccccc3)C(c3nnnn3Cc3ccco3)C(C)C)cc2c1 (stereo unspecified)	inconclusive: 29.1 µM [cytotoxic, single point]	
Cc1ccccc1Cn1c2ccccc2c2cnn(CC(=O)NCCCN3CCN(C)CC3)c(=O)c21	inconclusive: 0.651 µM [rising, full curve]	
CCCN1CCC(NC(=O)Cc2ccccc2C)CC1	inconclusive: 8.2 µM [rising, partial curve, poor fit]	
CCOC(=O)C1=C(COC(=O)COc2ccc(OCC)cc2)NC(=O)NC1C (stereo unspecified)	inactive	
CN(Cc1cnccn1)C(=O)C1CCC(=O)N(CCc2ccccc2)C1 (stereo unspecified)	inconclusive: 11.6 µM [rising, partial curve]	

— PubChem BioAssay AID1347076 (National Center for Advancing Translational Sciences (NCATS), 2019)
